# Test results taken from PubChem BioAssay AID624297 (National Center for Advancing Translational Sciences (NCATS), 2012).
# About 6,200 (1.8%) of roughly 340,000 compounds were called active. Inconclusive results, whose numbers are uncertain, are shown with a selection of clear calls. The call rests on the fitted dose curve; in most records, active means well fitted activation curve with a large enough effect; inconclusive means small, poorly fitted or top-dose-only effect; inactive means no such curve, though single readings can be large or run the other way. Potencies of inconclusive entries are doubtful fits and often do not repeat.
# Test: A quantitative high throughput screen for small molecules that induce DNA re-replication in SW480 colon adenocarcinoma cells. Further: nearly all actives have a fitted effect of over 55% in size. On re-replication activation: % of control where 0% means no effect.
# Details: Hoechst DNA content imaging, 48 h; re-replication activation: at 46.1 µM (top of the series) unless noted
# Outline: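 First, 250 cells per well were seeded. Next, compound or vehicle (23 nL) was pinned in, plates sat 48 hr at 37 C. Finally Hoechst was added for 40 min before fluorescence scanning.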
# Potency means the concentration at half of the fitted maximal effect.
SMILES,Potency,re-replication activation
COc1cc(NC(=O)c2cccc3c2C(=O)N(Cc2cccnc2)C3)cc(OC)c1OC,inactive,
O=C(/C=C/c1ccc(N2CCCCC2)c([N+](=O)[O-])c1)c1ccc(O)cc1,"inconclusive: 20.6 µM [activator, single point]",
COc1nc(OC)nc(Oc2ccc(Cl)cc2[N+](=O)[O-])n1,inactive,
Nc1cc(S(=O)(=O)Nc2ccc(Cl)cc2)ccc1N1CCOCC1,inactive,
COCc1cc(=O)[nH]c(SCCS(=O)(=O)c2ccc(C)cc2)n1,inactive,
CCCC[C@@H]1C=C(C(=O)O)[C@H](c2ccc(Br)cc2)N1S(=O)(=O)c1ccc(C)cc1,"inconclusive: 3.66 µM [activator, partial curve, poor fit]",
CCCCNC(=O)Cn1c(=O)c2c(ncn2CC)n(Cc2ccccc2)c1=O,inactive,
CC1CCN(c2nc3ccc(C(=O)NCCCN4CCCCC4C)cc3s2)CC1 (stereo not given),active: 20.6 µM,
COc1ccc(S(=O)(=O)N2CCC(C(=O)c3ccc4c(c3)OCCO4)CC2)cc1,inactive,
Cc1ccc(C(=O)N/C(=C/c2cccnc2)C(=O)O)cc1,"inconclusive: 0.731 µM [activator, partial curve, poor fit]",
O=C(NCCc1ccc(F)cc1)Nc1ccccc1,"inconclusive: 23.1 µM [activator, partial curve, poor fit]",
CN1CCN(CC(=O)Nc2ccccc2C(F)(F)F)CC1,"inconclusive: 11.6 µM [activator, single point]",
COc1ccc(NC(=O)Nc2cccc(Cl)c2Cl)c(OC)n1,"inconclusive: 2.31 µM [activator, partial curve]",
Cc1ccsc1/C=N/NC(=O)CC(=O)NCC(C)C,inactive,
Cc1cc2c(cc1C)NC(CC(=O)NCc1ccccc1)C(=O)N2 (stereo not given),"inconclusive: 35.5 µM [activator, single point]",
Cc1ccc(C2=N/C(=C\c3ccc(F)cc3)C(=O)N2)cc1,active: 14.6 µM,
Ic1ccc(N2CCN(Cc3c[nH]c4ncccc34)CC2)cc1,"inconclusive: 1.26 µM [activator, single point]",
CC1CN(C(=O)/C(C#N)=C2\N=C(NC(=O)c3ccc(F)cc3)c3ccccc32)CC(C)O1 (stereo not given),"inconclusive: 29.1 µM [activator, single point]",
Cc1cccc(NC(=O)COC(=O)c2cc(C)oc2C)c1,"inconclusive: 14.6 µM [activator, single point]",
O=C1c2cccc3c(N4CCCCC4)ccc(c23)C(=O)N1c1cccc(O)c1,"inconclusive: 23.1 µM [activator, single point]",
COc1ccc(/C=N/NC(=O)CC2N=C(Cc3ccccc3)NNC2=O)cc1OC (stereo not given),"inconclusive: 0.0046 µM [activator, full curve, poor fit]",
O=C(O)c1cc(-c2ccccc2Cl)n(-c2ccc(F)cc2)n1,"inconclusive: 7.31 µM [activator, single point]",
COCCNC(=O)c1c(N)n(-c2ccccc2)c2nc3ccccc3nc12,active: 20.6 µM,

SMILES,Potency,re-replication activation
CN(CCOc1ccccc1)CC(=O)Nc1ccc(Cl)c(S(=O)(=O)N(C)C)c1,inactive,
OCc1ccccc1O[C@@H]1O[C@H](CO)[C@@H](O)[C@H](O)[C@H]1O,inactive,
C[C@@H]1CC=C[C@H]2[C@H]1C(=O)N(Cc1ccccc1)[C@H]2c1ccc2ccccc2c1/C=C/c1ccccc1,"inconclusive: 3.26 µM [activator, single point]",
CC(=O)N1c2ccc(S(=O)(=O)NCC3CCC(C(=O)N4CCCC(C)C4)CC3)cc2CC1C (stereo not given),inactive,
CCOC(=O)C1=C(C)N(C[C@@H]2CC[C@@H](Cc3ccc(-c4ccccc4)cc3)O2)C(=O)NC1C1CC1 (stereo not given in full),"inconclusive: 18.4 µM [activator, partial curve, poor fit]",
COc1ccccc1NC(=O)CN1CCN(c2ccc(F)cc2)CC1,"inconclusive: 20.6 µM [activator, single point]",
CCN1CCN(C(=O)c2ccccc2N(Cc2ccccc2)S(=O)(=O)c2ccc(OC)cc2)CC1,inactive,
O=C1C=C(c2cc(Cl)cc(Cl)c2)C[C@@H](c2ccc3c(c2)OCO3)C1,"inconclusive: 32.6 µM [activator, partial curve, poor fit]",
COc1ccc(NC(=O)c2cccnc2)c([N+](=O)[O-])c1,active: 16.4 µM,
O=C(COC(=O)c1cc(=O)[nH]c2ccccc12)NC(=O)NC1CCCCC1,"inconclusive: 23.1 µM [activator, single point]",
COc1ccccc1-c1c(C)nn2c(-c3ccccc3)cc(C)nc12,"inconclusive: 7.31 µM [activator, partial curve]",
CSc1nc(-c2ccco2)cc(-c2ccccc2)c1C#N,inactive,
CN(C)c1ccc(-c2ccc3c(=O)c4ccccc4n(C)c3c2)cn1,,inactive: 2.78% [at 9.22 µM]
CCn1nnc(NC(=S)NC(=O)c2ccc(-c3cccc(Cl)c3)o2)n1,"inconclusive: 1.46 µM [activator, partial curve, poor fit]",
O=C(N/N=C\c1cc([N+](=O)[O-])ccc1N1CCOCC1)c1ccccn1,"inconclusive: 29.1 µM [activator, single point]",
O=C(NC(=S)Nc1cc(C(F)(F)F)ccc1N1CCOCC1)c1ccco1,inactive,
COc1cc(Nc2nc3c(N)cc(C(F)(F)F)cc3nc2-c2ccccc2)cc(OC)c1OC,inactive,
COc1ccc(C(C[N+](=O)[O-])c2c(-c3ccccc3)cc3ccccn23)cc1OC (stereo not given),"inconclusive: 20.6 µM [activator, single point]",
Cc1sc(NC(=O)CN2CCCC2)nc1-c1ccc2c(c1)CCN2C(=O)c1cccc(F)c1,"inconclusive: 29.1 µM [activator, single point]",
CC1(C)Cc2c(C#N)c(NCCc3ccccc3)nc(-c3ccco3)c2CO1,active: 6.51 µM,
O=C(NCC(c1ccco1)N1CCCCC1)c1cccc(NS(=O)(=O)c2ccc(Br)cc2)c1 (stereo not given),inactive,
Cc1cc(OCC(=O)N2CCC(C(N)=O)CC2)c2c(C)c(C)c(=O)oc2c1,"inconclusive: 25.9 µM [activator, single point]",

# Of the compounds above, these have bromine:
SMILES,Potency,re-replication activation
CCCC[C@@H]1C=C(C(=O)O)[C@H](c2ccc(Br)cc2)N1S(=O)(=O)c1ccc(C)cc1,"inconclusive: 3.66 µM [activator, partial curve, poor fit]",
O=C(NCC(c1ccco1)N1CCCCC1)c1cccc(NS(=O)(=O)c2ccc(Br)cc2)c1 (stereo not given),inactive,
